Measurements reported in paper PMC7819943, “Rice protein-binding microarrays: a tool to detect cis-acting elements near promoter regions in rice”.
This is one part of the list.

Molecular target: T1, OsSMF1 (Oryza sativa, UniProt Q6ZLB0 1-436)
T1 sequence: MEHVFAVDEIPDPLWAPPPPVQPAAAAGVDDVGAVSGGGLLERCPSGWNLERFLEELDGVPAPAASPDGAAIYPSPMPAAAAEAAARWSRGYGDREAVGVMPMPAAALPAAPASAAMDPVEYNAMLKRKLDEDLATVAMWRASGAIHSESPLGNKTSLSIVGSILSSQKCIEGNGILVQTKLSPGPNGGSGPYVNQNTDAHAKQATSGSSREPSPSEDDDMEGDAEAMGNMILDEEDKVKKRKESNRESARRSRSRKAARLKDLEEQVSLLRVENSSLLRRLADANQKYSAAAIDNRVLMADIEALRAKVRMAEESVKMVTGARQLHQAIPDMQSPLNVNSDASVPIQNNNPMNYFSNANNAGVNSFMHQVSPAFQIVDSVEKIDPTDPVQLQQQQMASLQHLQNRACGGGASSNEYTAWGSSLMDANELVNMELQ
Assay: protein-binding microarray (RPBM); PBS, 2% BSA, 51.3 ng/ul salmon testes DNA, 50 uM zinc acetate, 200 nM TF, 25 C, 1 h; high values mean tight binding
Settings: protein: recombinant; tags: N-terminal polyhistidine and DsRed monomer fusion (pET32a); chain copies: 2; label: CyDye5-dUTP incorporated in the synthesized complementary strand; 3' TTTTT single-stranded linker to array surface; dsDNA, one strand shown
Method in brief: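 The binding signal is fluorescence intensity per array feature (arbitrary units). Readings came from an Axon 4000B scanner after a washed, 2% BSA-blocked, double-stranded custom Agilent array had been incubated for 1 h at 25 °C with 200 nM protein and 50 µM zinc acetate. The protein was a Ni–NTA-purified transcription factor fused N-terminally to polyhistidine and DsRed, expressed in E. coli BL21-CodonPlus.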

Sequence | binding signal
CTAACTACACACGCAGGGCAGGCACACAACACAGTCAGCTCGGAGTCACCTAGTGCAG | 36700 fluorescence intensity (a.u.)
ACAAGACGCAATGTATGTATGACAAGTGGGTATATATATTCGGAGTCACCTAGTGCAG | 3310 fluorescence intensity (a.u.)
GTATTCTAAGATAAAGGGATGATGTATATATGCGTTGTAGCGGAGTCACCTAGTGCAG | 3680 fluorescence intensity (a.u.)
TTTAACACCATACAAGAGGAGGCTGGTGTCGGTGCTTGTCCGGAGTCACCTAGTGCAG | 17600 fluorescence intensity (a.u.)
AGAGTTAAACAAATAAATAAACTAAATGAATTCGTACCTTCGGAGTCACCTAGTGCAG | 19200 fluorescence intensity (a.u.)
GCGTTATGACACCGGCTGGCAATGACAAGACGGTTGATGACGGAGTCACCTAGTGCAG | 3730 fluorescence intensity (a.u.)
GGTTAATTTGACATAAACAGCGTCAGAAATGTAGTTCATGCGGAGTCACCTAGTGCAG | 3310 fluorescence intensity (a.u.)
TTTCTCCTCCTCGTTCTTAGGTGGCTTTTGCCATTGGATACGGAGTCACCTAGTGCAG | 3760 fluorescence intensity (a.u.)
CTTACCAACAAATCTCTCAACCGTTTGATTTAATAATTATCGGAGTCACCTAGTGCAG | 14900 fluorescence intensity (a.u.)
CAGTCTACAGTAAGTCACTTCCGCTTCCTTTTAGGCCTTCCGGAGTCACCTAGTGCAG | 3330 fluorescence intensity (a.u.)
ACTCTGGGTTTCCGTGTCCAATTTTGACTGTCCGTCTTATCGGAGTCACCTAGTGCAG | 3440 fluorescence intensity (a.u.)
AGGTGATGAAACGCATATAGGCTTACCTCGTAATGCAAGTCGGAGTCACCTAGTGCAG | 3600 fluorescence intensity (a.u.)
TTGTATGCTTCTACTACTATACTAGTGTAATGCATTGCTACGGAGTCACCTAGTGCAG | 3400 fluorescence intensity (a.u.)
GTCACAACAGGTGTTCAGCCGTGTGTCCGTGCGATGCAGCCGGAGTCACCTAGTGCAG | 3830 fluorescence intensity (a.u.)
CTCGCCGAGCTGTAGACCTGTAGTTAGTCACCTGCAGGCTCGGAGTCACCTAGTGCAG | 3230 fluorescence intensity (a.u.)
GCGGAGGTCGACCTTGGCGAGGTCGTCCACGTCCGGGTGCCGGAGTCACCTAGTGCAG | 3340 fluorescence intensity (a.u.)
GAGCATCGGGTTGCTTCGGCTTCGGATCCGGCGGGCGGTGCGGAGTCACCTAGTGCAG | 25400 fluorescence intensity (a.u.)
TGAGCATGAGCATATGCGTTGCAACATTGCTGACGCCATACGGAGTCACCTAGTGCAG | 5340 fluorescence intensity (a.u.)
TGTTACGGGACGCATATGAGGGTGTGGGTAAGCCGTGCAACGGAGTCACCTAGTGCAG | 3250 fluorescence intensity (a.u.)
ATGGTCAAGTGTCCTCAAATTATGGTCCTTTATATCTTCCCGGAGTCACCTAGTGCAG | 3750 fluorescence intensity (a.u.)
CACATCTACTATCCATTATATGACGCCAATATCTTGTGGTCGGAGTCACCTAGTGCAG | 3160 fluorescence intensity (a.u.)

Sequence | binding signal
GAAAATCTGTGGGAGGGGAGGGGAGGGGACGAGGGGACAGCGGAGTCACCTAGTGCAG | 11100 fluorescence intensity (a.u.)
TATTCAATGCGCGAGGAGGCGCATCATCCGGTGTCATTGCCGGAGTCACCTAGTGCAG | 3330 fluorescence intensity (a.u.)
TGCGTGTTTGATGATATACACGTGCGTATATGTCTACCGTCGGAGTCACCTAGTGCAG | 3880 fluorescence intensity (a.u.)
CATCTCAGCAATAGACTAGATTAATAGTAAACCATCTCAACGGAGTCACCTAGTGCAG | 3390 fluorescence intensity (a.u.)
GGGGAGGCCGACGAGGAGGGTTGGTGCGGATCCGCCAGCGCGGAGTCACCTAGTGCAG | 3330 fluorescence intensity (a.u.)
TTAGTCAAAGACTGGTCACCACCCCACTTTGCTTTTGGCGCGGAGTCACCTAGTGCAG | 3840 fluorescence intensity (a.u.)
GTAGATAGCGATTAGTTATGTCCTGCGTCATCCTTATCATCGGAGTCACCTAGTGCAG | 4030 fluorescence intensity (a.u.)
CGCCTCGCCATCGACCTCCACGTGGCGGGGTGACGTGTCACGGAGTCACCTAGTGCAG | 31900 fluorescence intensity (a.u.)
TGATTTGCACATACGTGTCATCAACCATATGGTTTGTGCACGGAGTCACCTAGTGCAG | 7880 fluorescence intensity (a.u.)
TCGCCACAGATGCTTGGCTCTGACGTGGTGGGTTAAGAGGCGGAGTCACCTAGTGCAG | 7740 fluorescence intensity (a.u.)
TCCCTACACCGTCGCCGTCAGCCGTTGGACATCTAGATCACGGAGTCACCTAGTGCAG | 4990 fluorescence intensity (a.u.)
ATTGGGCCGATAAAATGGGCCGCGTGGGCGGTGGAGTCGACGGAGTCACCTAGTGCAG | 3290 fluorescence intensity (a.u.)
ACTTTTATGTTGCTTGACGGCAGTCATCAACCCAGCAATACGGAGTCACCTAGTGCAG | 3720 fluorescence intensity (a.u.)
ATATACAATGAAACATTATACCCAAGTCATGATGTGTACACGGAGTCACCTAGTGCAG | 5070 fluorescence intensity (a.u.)
TTGTTAATATTGTGTCAAAGTATAGTCACCCTCCAAACACCGGAGTCACCTAGTGCAG | 4790 fluorescence intensity (a.u.)
AAGGTTGATGTGGCAGCCTGACATGTGGGGCCCACGTGGGCGGAGTCACCTAGTGCAG | 34100 fluorescence intensity (a.u.)
TTGTCCTTGTGAAATGAAATGCTTGTTGAATTTATGGCTGCGGAGTCACCTAGTGCAG | 4160 fluorescence intensity (a.u.)
GTGTGTGAGTTGCGTGTGCTGTGACAGCTGTCACGGGTTGCGGAGTCACCTAGTGCAG | 5730 fluorescence intensity (a.u.)
AGAAATATGGTTTCTTCCCCGTCAATACCTCCAGCATCACCGGAGTCACCTAGTGCAG | 3280 fluorescence intensity (a.u.)
CTCGGCTCGCAGACGCCACGCGATGTCTCTCTTCGTCCGGCGGAGTCACCTAGTGCAG | 4990 fluorescence intensity (a.u.)
GAAGGGAAAGACGGGGATGAGGCACCGGCGGAGGGGCGCGCGGAGTCACCTAGTGCAG | 3170 fluorescence intensity (a.u.)

Some of the entries above, reformatted.
Sequence	binding signal
CTAACTACACACGCAGGGCAGGCACACAACACAGTCAGCTCGGAGTCACCTAGTGCAG	36700 fluorescence intensity (a.u.)
ACAAGACGCAATGTATGTATGACAAGTGGGTATATATATTCGGAGTCACCTAGTGCAG	3310 fluorescence intensity (a.u.)
GTATTCTAAGATAAAGGGATGATGTATATATGCGTTGTAGCGGAGTCACCTAGTGCAG	3680 fluorescence intensity (a.u.)
TTTAACACCATACAAGAGGAGGCTGGTGTCGGTGCTTGTCCGGAGTCACCTAGTGCAG	17600 fluorescence intensity (a.u.)
AGAGTTAAACAAATAAATAAACTAAATGAATTCGTACCTTCGGAGTCACCTAGTGCAG	19200 fluorescence intensity (a.u.)
GCGTTATGACACCGGCTGGCAATGACAAGACGGTTGATGACGGAGTCACCTAGTGCAG	3730 fluorescence intensity (a.u.)
GGTTAATTTGACATAAACAGCGTCAGAAATGTAGTTCATGCGGAGTCACCTAGTGCAG	3310 fluorescence intensity (a.u.)
TTTCTCCTCCTCGTTCTTAGGTGGCTTTTGCCATTGGATACGGAGTCACCTAGTGCAG	3760 fluorescence intensity (a.u.)
CTTACCAACAAATCTCTCAACCGTTTGATTTAATAATTATCGGAGTCACCTAGTGCAG	14900 fluorescence intensity (a.u.)
CAGTCTACAGTAAGTCACTTCCGCTTCCTTTTAGGCCTTCCGGAGTCACCTAGTGCAG	3330 fluorescence intensity (a.u.)
ACTCTGGGTTTCCGTGTCCAATTTTGACTGTCCGTCTTATCGGAGTCACCTAGTGCAG	3440 fluorescence intensity (a.u.)
